Values from PubChem BioAssay AID1259424 (University of Nebraska Medical Center, 2018)
The deposit covers about 14,000 reagents; below is an unselected part. 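Higher correlation or smaller distance means closer resemblance to KSR1 loss; control wells, including KSR1 knockdowns, recur on many plates.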 Not given: the time to read-out.

- Screen: 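Rank knockdowns across the genome by resemblance to the KSR1 depletion profile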 (primary screen)
- Cells: human HCT116 colon cancer cells
- Knock-down reagent: siRNA pool against human genes, 50 nM
- Read-out: 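Log2 levels of six mRNAs (branched-DNA multiplex), adjusted by two reference genes and the non-targeting median, then scored against the average KSR1 knockdown pattern as Pearson r and euclidean distance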
- Direction: mean correlation with KSR1 profile and KSR1 correlation: higher = expression change more like KSR1 knockdown; mean distance from KSR1 profile: higher = expression change less like KSR1 knockdown

gene symbol	mean correlation with KSR1 profile	mean distance from KSR1 profile	KSR1 correlation, replicate 1	KSR1 correlation, replicate 2	KSR1 correlation, replicate 3
ABLIM3	0.757	0.529	0.497	0.78	0.763
AAR2	-0.488	3	-0.15	-0.52	-0.593
BDKRB1	0.85	1.69	0.683	0.788	0.96
KCNMB2	-0.0459	1.63	0.0191	-0.264	0.0781
STAP1	-0.406	2.63	-0.426	-0.42	-0.153
BIRC3	-0.123	1.2	-0.485	-0.198	0.201
VPS54	-0.355	3.3	-0.274	-0.445	-0.36
CMTM6	-0.337	1.46	-0.0716	-0.439	-0.238
GRIA3	-0.546	1.71	-0.863	-0.214	-0.302
ZCCHC3	0.546	1.3	0.491	0.776	0.0658
MMP17	-0.545	1.42	-0.18	-0.853	-0.372
ANAPC2	-0.098	2.11	-0.251	-0.0401	-0.0894
CPPED1	-0.367	2.65	-0.423	-0.543	-0.236
USP38	-0.516	1.84	-0.146	-0.789	-0.736
POLA2	-0.413	2.97	-0.111	-0.554	-0.463
APC	0.518	3.77	0.618	0.51	0.546
FAM90A1	-0.282	2.72	-0.388	-0.303	-0.221
AIG1	-0.614	2.02	-0.209	-0.619	-0.708
SLC8A2	-0.122	1.2	-0.0242	-0.382	0.23
TECTB	-0.205	3.45	-0.363	-0.19	-0.0538

3 entries already listed, ordered by “KSR1 correlation, replicate 2”, high to low.
gene symbol	mean correlation with KSR1 profile	mean distance from KSR1 profile	KSR1 correlation, replicate 1	KSR1 correlation, replicate 2	KSR1 correlation, replicate 3
ZCCHC3	0.546	1.3	0.491	0.776	0.0658
GRIA3	-0.546	1.71	-0.863	-0.214	-0.302
MMP17	-0.545	1.42	-0.18	-0.853	-0.372
